In PubChem BioAssay AID2685 (National Center for Advancing Translational Sciences (NCATS), 2010) one finds cell number change and AC50 data, which are given here for 58 molecules.

The nature of this assay: qHTS Assay for Lipid Storage Modulators in Drosophila S3 Cells.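 As to cell number change: cells counted by Cell Tracker Red CMTPX staining in the red channel.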 The following applies: BODIPY lipid droplet fluorescence, 18-24 h; for cell number change: measured here: cell count max response, cells fed with added oleic acid. A digest of the protocol: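 Drosophila S3 cells loaded with oleic acid (400 uM, as added) and compounds at several concentrations; lipid droplets imaged by 488-nm laser-scanning cytometry, 500–530 nm intensity and object ratio to cell channel. Percent activity normalized to 20 uM Triacsin C.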

[1] abbreviates: measured here: cell number channel AC50, cells fed with added oleic acid.
Setting [2] is: measured here: lipid fluorescence (Fed channel) AC50, cells fed with added oleic acid.

The list shows a part of the results. Shown are side measurements of this screen, not its main read-out; they come without a call. Compounds called inactive in the main read-out are mostly missing here. Words in brackets tell the shape of the fitted curve; partial curves, single points and poor fits give uncertain potencies.

Consider `Cc1ccc(NC(=O)CCc2c[nH]c3ccccc23)nc1`, for which the cell number change was -34.1%. In addition, the AC50 under setting [1] was 23.1 µM [falling, single point]. In addition, the AC50 under setting [2] was 14.6 µM [falling, partial curve].

On to `Cc1csc2ncc(C(=O)N3CCCc4ccccc43)c(=O)n12`, for which the cell number change was -6.86%. The AC50 under setting [2] is 7.31 µM [falling, partial curve].

Consider `COc1cc(CNCc2ccccc2)ccc1OCC(O)c1ccccc1` (stereo unspecified), for which the cell number change is -23.4%. Besides, the AC50 under setting [1] is 0.326 µM [falling, single point]. Under setting [2], the AC50 is 0.651 µM [falling, single point].

For the molecule `O=C(OCC(=O)N1CCN(c2ccccc2)CC1)c1ccco1`, under setting [2], the AC50 is 18.4 µM [falling, partial curve].

Consider `COc1cccc(NC(=O)Cn2c(=O)n(-c3ccccc3)c(=O)c3oc4ccccc4c32)c1`, for which the cell number change came to 15.9%. The AC50 under setting [1] was 0.00461 µM [falling, full curve, poor fit]. The AC50 under setting [2] is 3.66 µM [rising, full curve].

As for `COc1ccc(C(=O)Oc2ccc(/C=N/NC(=O)c3cccnc3)cc2OC)cc1`, the cell number change is -30%. Under setting [1], the AC50 is 0.82 µM [falling, full curve, poor fit]. In addition, the AC50 under setting [2] was 8.2 µM [falling, partial curve].

Take `CCOc1ccccc1NC(=O)CSc1nnc(CNC(=O)c2cccs2)o1`: the cell number change was 18.4%. The AC50 under setting [1] was 0.82 µM [rising, full curve, poor fit].

With `COc1ccc(NC(=O)CN2CCN(C3c4ccccc4-c4ccccc43)CC2)cc1`, the cell number change was -12.5%. Besides, under setting [2], the AC50 was 2.59 µM [rising, single point].

As for `Cn1ccnc1SCC(=O)c1ccc([N+](=O)[O-])cc1`, the cell number change worked out at 91.7%. Besides, the AC50 under setting [1] was 14.6 µM [rising, partial curve].

Consider `Cc1ccccc1NC(=O)CC(=O)Nc1ccccc1C`, for which the AC50 under setting [2] was 6.51 µM [rising, single point].

For the molecule `O=C(C1=NOC(CNc2ncc(C(F)(F)F)cc2Cl)C1)N1CCOCC1` (stereo unspecified), the cell number change was found to be 15.4%. For the same molecule, the AC50 under setting [2] was 0.00461 µM [falling, full curve, poor fit].

Turning to `Cc1nc(NC(=O)COC(=O)c2cc3c(s2)CCC(C)C3)c(Cl)cc1Cl` (stereo unspecified), the cell number change is 18.9%. The AC50 under setting [2] is 0.82 µM [rising, partial curve].

Consider `COc1ccc(C(=O)NC2CCCc3c2cnn3-c2ccccc2F)o1` (stereo unspecified), for which the cell number change was 9.43%. Further, the AC50 under setting [1] was 0.58 µM [falling, full curve]. Further, the AC50 under setting [2] was 0.291 µM [falling, partial curve, poor fit].

On to `COc1ccc2nc3c(cc2c1)c(NC(=O)C1CCCO1)nn3CC(C)C` (stereo unspecified), for which the cell number change was -38.9%. Also, the AC50 under setting [1] is 16.4 µM [falling, single point]. Also, the AC50 under setting [2] is 10.3 µM [falling, partial curve, poor fit].

On to `CNC(=O)C(C)NS(=O)(=O)c1ccc(F)cc1` (stereo unspecified), for which the cell number change is -15.7%. Besides, under setting [2], the AC50 is 23.1 µM [falling, partial curve].

In the case of `CC(Sc1nnnn1C)C(=O)NC1CCCc2ccccc21` (stereo unspecified), the cell number change is -26.1%.

Turning to `Cc1ccc2c(-c3csc(N)n3)c[nH]c2c1`, the cell number change was -23.6%. In addition, the AC50 under setting [2] was 2.59 µM [rising, full curve].

As for `Cc1c(CNC(=O)c2cnn3c2NC(c2ccc(Br)cc2)CC3C(F)(F)F)cnn1C` (stereo unspecified), the cell number change was -3.64%. Under setting [2], the AC50 is 0.058 µM [rising, full curve].

`Cc1nn(-c2ccccc2)c(Cl)c1/C=N/Nc1nncc(=O)[nH]1`: the cell number change turned out to be 11.1%.

Consider `CN1C(=O)C2(C(C#N)=C(N)N(c3cc(Cl)cc(Cl)c3)C3=C2C(=O)CC(C)(C)C3)c2ccccc21` (stereo unspecified), for which the cell number change is -3.32%. In addition, under setting [2], the AC50 was 0.461 µM [falling, full curve, poor fit].

Take `COc1cccc(CN(C)CC(=O)Nc2ccccc2C(=O)Nc2ccccc2)c1`: the cell number change came out at 37%. The AC50 under setting [1] is 18.4 µM [rising, partial curve].

As to `Cc1cccc(OC(=O)c2cccnc2)c1C`, the cell number change is -1.17%.

`CCOc1ccc(C2=C/C(=C/c3cccnc3)C(=O)O2)cc1`: the AC50 under setting [2] was 2.06 µM [rising, partial curve].

As to `COc1cc(/C=C(\C#N)C(=O)Nc2ccccc2C(=O)O)cc(Cl)c1OC`, the cell number change is -115%.

In the case of `O=[N+]([O-])c1ccc(O)c(/C=N/Nc2ccccc2Cl)c1`, the cell number change was -8.88%.

For the molecule `O=C1c2cccc3c([N+](=O)[O-])ccc(c23)C(=O)N1CCc1ccccn1`, the AC50 under setting [2] was 14.6 µM [rising, single point].

Turning to `Cc1ccc2c(CC(=O)OCC(=O)Nc3ccc(Cl)cn3)coc2c1`, the AC50 was 6.51 µM [rising, partial curve] under setting [1] and 0.92 µM [falling, full curve] under setting [2].

Consider `CCOc1ccc(S(=O)(=O)N2CCC(C(=O)N3CCOCC3)CC2)cc1Cl`, for which the cell number change was -21.1%. In addition, the AC50 under setting [2] was 1.41 µM [rising, partial curve].

On to `COc1ccc(NC(=O)CCNS(=O)(=O)c2ccc3c(c2)c(=O)n(C)c(=O)n3C)c(OC)c1`, for which the cell number change is -40.1%. The AC50 under setting [2] was 18.4 µM [rising, single point].

For `O=C(Nc1cccc(S(=O)(=O)N2CCOCC2)c1)c1cccc(S(=O)(=O)N2CCCC2)c1`, the cell number change worked out at 23.3%.

With `CC(NCc1cc(Br)ccc1OCC(=O)NCc1ccccc1)c1ccccc1` (stereo unspecified), the cell number change was 6.05%. The AC50 under setting [2] was 29.1 µM [falling, single point].

In the case of `CCc1ccc(CN(C)CC(=O)Nc2ccc(S(=O)(=O)N3CCOCC3)cc2)cc1`, the cell number change was -9.03%. Further, under setting [2], the AC50 was 0.00461 µM [falling, full curve, poor fit].

As to `O=C(CCN1C(=O)c2ccccc2C1=O)N1CCN(C2c3ccccc3-c3ccccc32)CC1`, the cell number change amounted to 40.4%. Further, the AC50 under setting [1] was 16.4 µM [rising, single point]. Also, under setting [2], the AC50 is 0.58 µM [falling, single point].

Regarding `CCCOc1ccccc1-n1sc2c(c1=S)-c1cc(OC)cc3c1N(C(=O)C3=O)C2(C)C`, the cell number change came to 1.06%. Under setting [1], the AC50 is 0.731 µM [rising, single point]. The AC50 under setting [2] is 0.58 µM [rising, single point].

Take `CCN1CCN(CC(=O)c2c(C)n(C)c3ccc(OC)cc23)CC1`: the cell number change is -32.5%. For the same molecule, the AC50 under setting [1] was 36.6 µM [falling, single point]. The AC50 under setting [2] was 0.82 µM [falling, full curve].

Consider `Cc1cccc(OCCCC(=O)Nc2ccc(S(=O)(=O)N3CCCC3)cc2)c1`, for which the cell number change is -33.8%. For the same molecule, under setting [1], the AC50 is 13 µM [falling, single point]. Under setting [2], the AC50 is 14.6 µM [falling, single point].

For the molecule `Cc1cccn2c(=O)c3cc(C(=O)NCCc4ccccc4)c(=N)n(Cc4ccco4)c3nc12`, the cell number change was -8.73%. Under setting [2], the AC50 is 1.46 µM [falling, partial curve].

Regarding `CCn1c(COc2ccccc2C)nnc1SCC(=O)OC`, the cell number change was -12.6%. For the same molecule, under setting [2], the AC50 is 23.1 µM [falling, partial curve].

Consider `Cc1ccc2nc3n(c(=O)c2c1)-c1cc(Cl)ccc1C(=O)NC3Cc1ccccc1` (stereo unspecified), for which the cell number change came out at 16.9%. In addition, under setting [1], the AC50 was 4.61 µM [rising, single point].

Regarding `COc1ccccc1Nc1nnc(C)c(=O)[nH]1`, the cell number change turned out to be 22.1%. The AC50 under setting [2] is 23.1 µM [rising, partial curve].

`O=C(CSc1nnc(Nc2ccccc2)s1)NCC1CCCO1` (stereo unspecified): the cell number change is -34.5%. Further, the AC50 under setting [1] was 32.6 µM [falling, single point].

`CCC(=O)N1CCc2cc(Br)cc(S(=O)(=O)C3(C(=O)OC)CC3)c21`: the AC50 under setting [2] was 5.17 µM [rising, single point].

Take `CC(C)(C)n1ncc2c(=O)n(CC(=O)NCc3ccccc3Cl)cnc21`: the cell number change was -13.1%. For the same molecule, the AC50 under setting [2] is 0.82 µM [rising, single point].

With `CCCCCCCCn1ccc(=N)cc1`, the cell number change was -59.1%. Also, the AC50 under setting [1] was 14.6 µM [falling, partial curve]. The AC50 under setting [2] is 29.1 µM [falling, single point].

Consider `Clc1ccc(Cn2cc(/C=N/n3cnnc3)c3ccccc32)c(Cl)c1`, for which the cell number change was -83.6%. Also, the AC50 under setting [1] was 29.1 µM [falling, single point]. For the same molecule, the AC50 under setting [2] is 23.1 µM [falling, single point].

As to `Cc1ccccc1OCC(=O)Nc1ccccc1C(=O)N1CCCCC1`, the cell number change was -4.91%. For the same molecule, the AC50 under setting [2] is 4.11 µM [falling, single point].

Consider `Cc1ccc(CNC(=O)c2sc3ccc(S(=O)(=O)N4CCCCC4)cc3c2N)cc1`, for which the cell number change is -21.6%. The AC50 under setting [2] was 29.1 µM [falling, single point].

In the case of `O=C(NC1CCCC1)c1ccccc1-c1nc2ccccc2[nH]1`, the cell number change was 50.3%. The AC50 under setting [1] was 25.9 µM [rising, single point]. Under setting [2], the AC50 was 29.1 µM [rising, partial curve].

For the molecule `CCCCn1c(-c2ccccc2)nc2c(=O)n(C)c(=O)[nH]c21`, the cell number change was 2.05%. Moreover, the AC50 under setting [2] is 6.51 µM [falling, single point].

Consider `COc1ccccc1C(=O)Nc1cccc(Oc2c(F)c(F)c(F)c(F)c2F)c1`, for which the cell number change worked out at 28.6%. For the same molecule, the concentration at half-maximal activity (AC50) under setting [2] was 1.64 µM [rising, partial curve].

Consider `Cc1ccccc1C(=O)N1CCC(C(N)=O)CC1`, for which the cell number change turned out to be 19.6%.

As to `CCc1ccccc1N/C(=N\S(=O)(=O)c1ccccc1)C(F)(F)F`, the cell number change was found to be 20.9%. Further, the AC50 under setting [1] was 0.651 µM [rising, full curve, poor fit]. Under setting [2], the AC50 is 6.51 µM [rising, single point].

As for `Cc1ccc(-c2nnc(NCCCO)c3ccccc23)cc1`, the cell number change is -5.56%. The AC50 under setting [2] was 29.1 µM [rising, single point].

Turning to `Cc1ccc(S(C)(=O)=O)cc1C(=O)N1CC(C(N)=O)Oc2ccccc21` (stereo unspecified), the cell number change was 26.1%.

For the molecule `CS(=O)(=O)N(CC(=O)Nc1ccc(F)cc1F)c1cccc([N+](=O)[O-])c1`, the AC50 under setting [2] was 0.0206 µM [rising, full curve, poor fit].

For `O=C(NCc1ccccc1)c1noc2c1CCCCC2`, the cell number change stood at 31.9%. The AC50 under setting [1] is 13 µM [rising, partial curve, poor fit].

In the case of `NC1=NC(=Nc2ccccc2)c2ccccc21`, the cell number change was -0.147%. Also, under setting [1], the AC50 is 0.00461 µM [falling, full curve, poor fit].

Regarding `COc1cccc(NCc2ccc([N+](=O)[O-])s2)c1`, the AC50 under setting [1] is 0.92 µM [rising, full curve, poor fit] and the AC50 under setting [2] was 0.00517 µM [rising, full curve, poor fit].

Usually AC50 stands for the midpoint of the concentration-response curve, whichever way the signal moves. A lower AC50 goes with greater potency.
